The other results are listed elsewhere or left out.
How the values were obtained:
Test in all cases: log2 fold change, soluble protein after heating vs DMSO (PISA); higher = thermal stabilisation; K562 lysate, 10 uM; active = over 0.2 and 3.5 SD of the protein, either way, in both replicates (recomputed)
[1] = compound: CS(=O)(=O)CCNCc1ccc(-c2ccc3ncnc(Nc4ccc(OCc5cccc(F)c5)c(Cl)c4)c3c2)o1 [lapatinib]
Outline: (§1)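 Soluble protein was defined as the supernatant remaining after 21,000xg for 90 min, following pooling of heated aliquots and adjustment to 0.5% NP-40 at 4°C. Before that, crude K562 extract at 1 mg/mL protein in PBS pH 7.4 with 1 mM MgCl2 was treated with 10 μM compound for 30 min and heated for 3 min across 48°C-58°C. Quantification used TMTpro 16plex LC-MS/MS with channel sums equalised, and values are log-two fold changes in thermal stability relative to solvent controls from duplicates.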

Chains of the proteins cited; added tags and fusions are not shown. Lines headed by an entry give the natural chain unless they say otherwise; changes in a name come on top.
UniProt P48029: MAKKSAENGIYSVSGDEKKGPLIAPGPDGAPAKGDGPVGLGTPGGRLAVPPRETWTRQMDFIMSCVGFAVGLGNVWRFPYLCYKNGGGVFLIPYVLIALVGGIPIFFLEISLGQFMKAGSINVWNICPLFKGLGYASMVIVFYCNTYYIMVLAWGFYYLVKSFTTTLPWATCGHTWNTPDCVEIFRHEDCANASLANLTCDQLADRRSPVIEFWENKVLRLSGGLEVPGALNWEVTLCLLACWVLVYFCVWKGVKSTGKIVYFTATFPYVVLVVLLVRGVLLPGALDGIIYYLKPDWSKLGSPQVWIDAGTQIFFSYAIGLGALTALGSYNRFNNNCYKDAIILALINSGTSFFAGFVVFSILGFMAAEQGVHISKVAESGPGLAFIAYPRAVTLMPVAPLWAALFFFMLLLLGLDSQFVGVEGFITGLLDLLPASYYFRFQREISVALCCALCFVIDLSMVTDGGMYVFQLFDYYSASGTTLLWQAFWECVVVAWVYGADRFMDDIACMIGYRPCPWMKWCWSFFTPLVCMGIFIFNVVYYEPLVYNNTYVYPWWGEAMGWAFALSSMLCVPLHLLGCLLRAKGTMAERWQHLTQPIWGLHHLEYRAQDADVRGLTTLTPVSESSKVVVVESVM
UniProt Q9Y619: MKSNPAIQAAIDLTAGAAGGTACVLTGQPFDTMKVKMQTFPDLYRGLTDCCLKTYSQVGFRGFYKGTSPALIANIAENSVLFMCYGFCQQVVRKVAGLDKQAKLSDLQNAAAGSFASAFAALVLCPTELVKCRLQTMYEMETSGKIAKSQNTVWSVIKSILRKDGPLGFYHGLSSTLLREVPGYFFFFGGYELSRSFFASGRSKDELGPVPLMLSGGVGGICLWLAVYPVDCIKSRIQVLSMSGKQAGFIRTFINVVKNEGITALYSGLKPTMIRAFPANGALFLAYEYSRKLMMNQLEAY
UniProt Q5SVS4: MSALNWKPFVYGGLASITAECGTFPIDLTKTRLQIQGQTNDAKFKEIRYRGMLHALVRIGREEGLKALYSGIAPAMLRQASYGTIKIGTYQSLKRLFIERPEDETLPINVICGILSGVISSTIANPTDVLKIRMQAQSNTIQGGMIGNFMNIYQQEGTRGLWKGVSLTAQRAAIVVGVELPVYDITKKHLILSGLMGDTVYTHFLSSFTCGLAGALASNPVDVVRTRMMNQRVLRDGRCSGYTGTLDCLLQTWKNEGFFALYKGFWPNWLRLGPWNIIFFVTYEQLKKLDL
UniProt Q96AG3: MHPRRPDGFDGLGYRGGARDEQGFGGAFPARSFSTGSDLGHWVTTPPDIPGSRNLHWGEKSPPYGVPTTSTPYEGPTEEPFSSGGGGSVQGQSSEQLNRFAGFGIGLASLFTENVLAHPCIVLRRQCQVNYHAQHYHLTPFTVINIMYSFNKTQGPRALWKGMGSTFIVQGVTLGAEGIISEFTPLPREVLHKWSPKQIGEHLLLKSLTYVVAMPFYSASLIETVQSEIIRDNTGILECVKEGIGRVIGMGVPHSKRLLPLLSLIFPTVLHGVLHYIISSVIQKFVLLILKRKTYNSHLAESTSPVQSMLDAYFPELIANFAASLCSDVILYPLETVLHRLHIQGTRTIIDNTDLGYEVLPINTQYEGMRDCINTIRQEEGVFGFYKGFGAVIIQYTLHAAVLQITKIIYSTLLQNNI
UniProt Q9ULF5: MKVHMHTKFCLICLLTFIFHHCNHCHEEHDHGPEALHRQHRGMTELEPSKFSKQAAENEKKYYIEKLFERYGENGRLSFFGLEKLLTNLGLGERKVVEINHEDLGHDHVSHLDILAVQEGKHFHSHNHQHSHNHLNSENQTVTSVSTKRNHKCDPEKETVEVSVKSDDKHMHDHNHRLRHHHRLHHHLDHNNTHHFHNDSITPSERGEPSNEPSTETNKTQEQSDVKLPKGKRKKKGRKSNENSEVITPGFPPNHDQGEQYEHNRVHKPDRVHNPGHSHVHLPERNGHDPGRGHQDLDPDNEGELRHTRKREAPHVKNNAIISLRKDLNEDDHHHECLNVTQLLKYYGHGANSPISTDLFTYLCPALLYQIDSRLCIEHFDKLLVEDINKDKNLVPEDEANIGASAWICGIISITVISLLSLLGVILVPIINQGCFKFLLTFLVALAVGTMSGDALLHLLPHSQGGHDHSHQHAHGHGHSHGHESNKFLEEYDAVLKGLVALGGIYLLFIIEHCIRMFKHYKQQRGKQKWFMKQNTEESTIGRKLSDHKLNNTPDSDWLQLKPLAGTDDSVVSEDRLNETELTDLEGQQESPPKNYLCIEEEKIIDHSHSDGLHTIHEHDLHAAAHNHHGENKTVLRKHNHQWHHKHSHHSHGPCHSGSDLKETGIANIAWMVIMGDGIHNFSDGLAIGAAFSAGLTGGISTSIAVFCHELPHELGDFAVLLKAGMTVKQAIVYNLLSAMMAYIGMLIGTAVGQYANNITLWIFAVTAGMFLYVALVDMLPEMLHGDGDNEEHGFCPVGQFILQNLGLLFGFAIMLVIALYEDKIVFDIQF
UniProt Q96A29: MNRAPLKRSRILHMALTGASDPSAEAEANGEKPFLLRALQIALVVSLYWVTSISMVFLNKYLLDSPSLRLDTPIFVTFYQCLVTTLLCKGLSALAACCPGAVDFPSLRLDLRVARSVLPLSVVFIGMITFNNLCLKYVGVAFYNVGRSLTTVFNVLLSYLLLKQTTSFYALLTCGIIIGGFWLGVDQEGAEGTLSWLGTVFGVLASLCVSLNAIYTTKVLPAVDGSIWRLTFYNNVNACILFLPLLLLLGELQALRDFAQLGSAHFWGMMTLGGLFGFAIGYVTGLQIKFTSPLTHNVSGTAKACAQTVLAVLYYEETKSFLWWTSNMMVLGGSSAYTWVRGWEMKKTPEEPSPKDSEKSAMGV
UniProt O15431: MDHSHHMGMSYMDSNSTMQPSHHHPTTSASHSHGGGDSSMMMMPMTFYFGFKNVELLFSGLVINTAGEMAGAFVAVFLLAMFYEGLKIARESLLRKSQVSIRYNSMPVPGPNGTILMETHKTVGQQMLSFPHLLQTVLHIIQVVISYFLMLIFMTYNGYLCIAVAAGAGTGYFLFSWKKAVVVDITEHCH
UniProt P12235: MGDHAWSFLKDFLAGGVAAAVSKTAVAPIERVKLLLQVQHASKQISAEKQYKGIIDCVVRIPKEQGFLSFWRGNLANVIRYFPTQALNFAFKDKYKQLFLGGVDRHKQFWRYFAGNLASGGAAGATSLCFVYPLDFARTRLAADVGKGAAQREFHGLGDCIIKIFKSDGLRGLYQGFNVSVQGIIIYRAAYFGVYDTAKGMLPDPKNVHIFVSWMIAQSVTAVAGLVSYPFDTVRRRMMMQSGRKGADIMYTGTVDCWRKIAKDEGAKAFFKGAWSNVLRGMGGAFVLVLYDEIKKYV
UniProt Q8N1S5: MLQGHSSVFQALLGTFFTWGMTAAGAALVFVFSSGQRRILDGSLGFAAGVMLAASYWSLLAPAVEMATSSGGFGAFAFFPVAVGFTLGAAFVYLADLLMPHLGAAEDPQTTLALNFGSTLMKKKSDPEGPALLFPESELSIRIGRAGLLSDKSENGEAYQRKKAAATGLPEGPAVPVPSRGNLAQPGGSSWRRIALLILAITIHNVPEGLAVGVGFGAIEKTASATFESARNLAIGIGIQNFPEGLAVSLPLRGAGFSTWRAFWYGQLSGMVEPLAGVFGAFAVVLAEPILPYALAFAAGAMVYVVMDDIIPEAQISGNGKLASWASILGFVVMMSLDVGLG
UniProt Q15043: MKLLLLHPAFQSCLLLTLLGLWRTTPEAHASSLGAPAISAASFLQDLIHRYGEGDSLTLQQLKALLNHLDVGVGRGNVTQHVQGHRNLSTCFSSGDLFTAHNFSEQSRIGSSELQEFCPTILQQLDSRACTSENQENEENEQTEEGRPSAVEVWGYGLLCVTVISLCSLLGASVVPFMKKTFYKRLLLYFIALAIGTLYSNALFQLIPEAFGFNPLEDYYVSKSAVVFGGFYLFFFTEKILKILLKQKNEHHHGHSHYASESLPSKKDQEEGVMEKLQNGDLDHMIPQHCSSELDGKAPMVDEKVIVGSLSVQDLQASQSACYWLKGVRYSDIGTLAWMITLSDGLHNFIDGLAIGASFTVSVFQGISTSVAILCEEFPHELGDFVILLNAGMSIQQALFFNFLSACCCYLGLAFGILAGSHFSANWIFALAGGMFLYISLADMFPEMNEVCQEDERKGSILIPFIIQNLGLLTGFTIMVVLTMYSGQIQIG
UniProt P11166: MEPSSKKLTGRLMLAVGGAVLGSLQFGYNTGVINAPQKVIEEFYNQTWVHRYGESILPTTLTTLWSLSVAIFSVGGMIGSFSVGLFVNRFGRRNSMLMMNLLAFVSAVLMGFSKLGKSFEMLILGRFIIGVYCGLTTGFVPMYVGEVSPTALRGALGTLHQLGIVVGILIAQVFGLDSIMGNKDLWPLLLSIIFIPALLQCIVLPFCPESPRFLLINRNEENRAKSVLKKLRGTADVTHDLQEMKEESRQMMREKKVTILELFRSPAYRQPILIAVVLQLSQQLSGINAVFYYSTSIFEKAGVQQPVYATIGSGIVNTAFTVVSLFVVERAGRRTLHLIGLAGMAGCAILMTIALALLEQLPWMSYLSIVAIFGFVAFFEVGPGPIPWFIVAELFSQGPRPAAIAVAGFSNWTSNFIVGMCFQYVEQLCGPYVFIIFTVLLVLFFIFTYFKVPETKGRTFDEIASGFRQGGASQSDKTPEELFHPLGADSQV
UniProt Q9NYZ2: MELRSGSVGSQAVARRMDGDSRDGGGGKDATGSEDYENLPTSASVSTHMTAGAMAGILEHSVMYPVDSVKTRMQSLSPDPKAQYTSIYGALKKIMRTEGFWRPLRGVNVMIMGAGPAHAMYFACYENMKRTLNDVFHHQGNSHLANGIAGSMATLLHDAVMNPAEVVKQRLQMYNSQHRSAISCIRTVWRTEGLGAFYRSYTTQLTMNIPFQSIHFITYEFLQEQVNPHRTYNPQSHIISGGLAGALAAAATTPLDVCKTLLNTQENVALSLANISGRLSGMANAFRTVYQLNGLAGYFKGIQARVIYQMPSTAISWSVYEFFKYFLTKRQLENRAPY
UniProt Q8IWA5: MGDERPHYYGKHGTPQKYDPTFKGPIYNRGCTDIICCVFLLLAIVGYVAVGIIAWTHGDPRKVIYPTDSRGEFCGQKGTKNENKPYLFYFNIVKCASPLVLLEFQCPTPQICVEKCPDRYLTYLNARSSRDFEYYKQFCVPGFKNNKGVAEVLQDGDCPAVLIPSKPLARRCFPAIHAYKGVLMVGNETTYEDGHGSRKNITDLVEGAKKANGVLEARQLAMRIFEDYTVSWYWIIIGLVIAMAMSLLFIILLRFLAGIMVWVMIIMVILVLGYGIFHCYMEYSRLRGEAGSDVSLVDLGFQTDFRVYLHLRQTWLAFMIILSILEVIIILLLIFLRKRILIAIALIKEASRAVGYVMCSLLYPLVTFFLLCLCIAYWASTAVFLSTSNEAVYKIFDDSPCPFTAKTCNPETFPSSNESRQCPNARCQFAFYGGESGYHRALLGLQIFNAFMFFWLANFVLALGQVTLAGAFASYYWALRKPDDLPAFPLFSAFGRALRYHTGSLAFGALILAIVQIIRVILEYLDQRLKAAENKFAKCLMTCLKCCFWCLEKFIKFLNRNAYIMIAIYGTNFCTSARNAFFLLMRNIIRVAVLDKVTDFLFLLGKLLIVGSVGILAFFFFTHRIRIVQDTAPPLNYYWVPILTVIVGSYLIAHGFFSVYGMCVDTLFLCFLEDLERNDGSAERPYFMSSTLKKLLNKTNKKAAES
UniProt Q6ZP29: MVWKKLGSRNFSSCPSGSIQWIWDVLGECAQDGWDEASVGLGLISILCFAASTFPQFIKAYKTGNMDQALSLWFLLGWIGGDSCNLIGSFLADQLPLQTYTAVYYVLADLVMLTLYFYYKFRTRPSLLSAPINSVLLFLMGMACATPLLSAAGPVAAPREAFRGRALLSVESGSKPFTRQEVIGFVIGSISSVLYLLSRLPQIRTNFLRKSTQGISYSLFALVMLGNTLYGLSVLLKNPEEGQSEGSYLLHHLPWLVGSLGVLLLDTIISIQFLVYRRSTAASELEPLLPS
UniProt F5GZS6: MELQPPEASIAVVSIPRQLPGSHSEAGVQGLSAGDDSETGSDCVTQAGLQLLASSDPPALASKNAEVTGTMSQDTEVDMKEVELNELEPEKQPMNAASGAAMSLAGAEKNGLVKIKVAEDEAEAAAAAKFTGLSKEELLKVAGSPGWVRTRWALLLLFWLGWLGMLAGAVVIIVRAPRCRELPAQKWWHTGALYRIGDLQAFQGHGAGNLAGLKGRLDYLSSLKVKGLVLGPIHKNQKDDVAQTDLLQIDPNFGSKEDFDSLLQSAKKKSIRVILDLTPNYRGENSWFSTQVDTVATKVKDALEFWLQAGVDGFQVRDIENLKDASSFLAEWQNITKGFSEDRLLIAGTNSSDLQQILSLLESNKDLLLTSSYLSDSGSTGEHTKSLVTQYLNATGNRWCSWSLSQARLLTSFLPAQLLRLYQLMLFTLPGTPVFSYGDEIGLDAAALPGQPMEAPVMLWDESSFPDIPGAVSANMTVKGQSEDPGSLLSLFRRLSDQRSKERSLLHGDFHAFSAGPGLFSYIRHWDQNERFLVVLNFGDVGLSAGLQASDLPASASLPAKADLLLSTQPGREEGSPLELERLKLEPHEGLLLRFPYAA

[2] = compound: CS(=O)(=O)N1CCN(Cc2cc3nc(-c4cccc5[nH]ncc45)nc(N4CCOCC4)c3s2)CC1 [pictilisib]
Outline: as §1

[3] = compound: C[C@@H](Oc1cc(-c2cnn(C3CCNCC3)c2)cnc1N)c1c(Cl)ccc(F)c1Cl [crizotinib]
Outline: as §1

[4] = compound: C[C@H](C1=CC=C(C=C1)C(=O)NC2=C3C=CNC3=NC=C2)N
Outline: as §1

[5] = compound: C[C@H](Nc1ncnc2nc[nH]c12)c1cc2cccc(Cl)c2c(=O)n1-c1ccccc1 [duvelisib]
Outline: as §1

[6] = compound: Cc1cc(Nc2cc(CN3CCOCC3)c3nc(C)c(Cc4ccc(Cl)cc4F)n3n2)n[nH]1 [gandotinib]
Outline: as §1

[7] = compound: Cc1cc(Nc2cc(N3CCN(C)CC3)nc(Sc3ccc(NC(=O)C4CC4)cc3)n2)n[nH]1 [tozasertib]
Outline: as §1

[8] = compound: Cc1ccc(-n2nc(C(C)(C)C)cc2NC(=O)Nc2ccc(OCCN3CCOCC3)c3ccccc23)cc1 [doramapimod]
Outline: as §1

[9] = compound: Cc1ccc(NC(=O)c2ccc(CN3CC[C@H](N(C)C)C3)c(C(F)(F)F)c2)cc1Nc1nccc(-c2cncnc2)n1 [bafetinib]
Outline: as §1

[10] = compound: Cc1cccc(CC(=O)N2CCc3c2ccc(-c2cn(C)c4ncnc(N)c24)c3F)n1
Outline: as §1

Measured: log2 fold change

SLC6A8 (UniProt P48029)
inactive: [1] -0.033 | [2] 0.013 | [3] 0.103 | [4] -0.242 | [5] -0.004 | [6] 0.103 | [7] 0.004 | [8] -0.001 | [9] -0.035 | [10] 0.116

SLC25A15 (UniProt Q9Y619)
inactive: [1] -0.029 | [2] -0.006 | [3] 0.005 | [4] -0.057 | [5] 0.02 | [6] 0.023 | [7] -0.035 | [8] 0.004 | [9] -0.013 | [10] 0.029

SLC9A7 (UniProt Q96T83)
inactive: [1] -0.056 | [2] -0.254 | [3] -0.234 | [8] 0.141 | [9] -0.669

SLC9A3R2 (UniProt Q15599)
inactive: [1] -0.038 | [2] -0.002 | [3] 0.026 | [4] -0.148 | [5] -0.005 | [6] 0.041 | [7] 0.019 | [8] 0.044 | [9] -0.004 | [10] 0.01

SLC25A30 (UniProt Q5SVS4)
inactive: [1] -0.029 | [2] -0.037 | [3] 0.02 | [4] -0.042 | [5] 0.086 | [6] 0.046 | [8] -0.033 | [9] -0.048 | [10] 0.01

SLC45A4 isoform 3 (UniProt Q5BKX6)
inactive: [1] -0.006 | [2] -0.072 | [3] -0.01 | [4] 0.042 | [6] -0.104 | [7] 0.043 | [8] 0.03 | [9] -0.046 | [10] 0.029

SLC39A7 (UniProt Q92504)
inactive: [1] -0.009 | [2] -0.012 | [3] 0.006 | [4] -0.062 | [6] 0.147 | [7] 0.07 | [8] -0.011 | [9] -0.013 | [10] 0.038

SLC25A46 (UniProt Q96AG3)
inactive: [1] -0.011 | [2] -0.01 | [3] -0.03 | [4] -0.015 | [5] -0.002 | [6] -0.065 | [7] -0.032 | [8] -0.037 | [9] 0.044 | [10] 0.062

SLC39A10 (UniProt Q9ULF5)
inactive: [1] 0.009 | [2] 0.008 | [3] 0.073 | [4] -0.003 | [5] -0.003 | [6] -0.003 | [7] 0.009 | [8] -0.003 | [9] 0.02 | [10] -0.027

SLC25A21 (UniProt Q9BQT8)
inactive: [1] 0.016 | [2] 0.017 | [3] -0.012 | [4] -0.084 | [5] 0.02 | [6] 0.056 | [7] -0.012 | [8] -0.023 | [9] -0.011 | [10] 0.061

SLC35C1 (UniProt Q96A29)
inactive: [1] -0.005 | [2] 0 | [3] -0.021 | [7] 0.034 | [8] -0.06 | [9] 0.061

SLC31A1 (UniProt O15431)
inactive: [1] 0.224 | [2] -0.052 | [3] -0.039 | [4] -0.044 | [5] -0.007 | [6] 0.077 | [8] 0 | [9] -0.055 | [10] 0.016

SLC35F6 (UniProt Q8N357)
inactive: [1] -0.04 | [2] -0.044 | [3] 0.053 | [4] -0.004 | [5] -0.022 | [6] -0.15 | [7] 0.096 | [8] 0.024 | [9] -0.075 | [10] 0.133

SMAD2 (UniProt Q15796)
inactive: [1] -0.006 | [2] -0.042 | [3] -0.055 | [4] -0.073 | [5] -0.066 | [6] -0.006 | [7] -0.027 | [8] -0.025 | [9] -0.005 | [10] 0.06

SLC25A4 (UniProt P12235)
inactive: [1] 0.01 | [2] -0.009 | [3] 0.024 | [4] -0.05 | [5] 0.031 | [6] 0.17 | [7] -0.002 | [8] 0.023 | [9] 0.026 | [10] 0.111

SLC39A11 (UniProt Q8N1S5)
inactive: [1] -0.054 | [2] 0.081 | [3] 0.081 | [4] -0.097 | [5] -0.002 | [6] 0.1 | [7] 0.178 | [8] -0.139 | [9] 0.022 | [10] 0.013

SLC39A14 (UniProt Q15043)
inactive: [1] 0.018 | [2] 0.01 | [3] 0.02 | [4] 0.038 | [5] 0.003 | [6] 0.014 | [7] -0.003 | [8] 0.015 | [9] -0.066 | [10] -0.04

2 consecutive entries out of the list so far, for reference:
SLC25A4 (UniProt P12235)
inactive: [1] 0.01 | [2] -0.009 | [3] 0.024 | [4] -0.05 | [5] 0.031 | [6] 0.17 | [7] -0.002 | [8] 0.023 | [9] 0.026 | [10] 0.111

SLC39A11 (UniProt Q8N1S5)
inactive: [1] -0.054 | [2] 0.081 | [3] 0.081 | [4] -0.097 | [5] -0.002 | [6] 0.1 | [7] 0.178 | [8] -0.139 | [9] 0.022 | [10] 0.013

Later entries.

SLC2A1 (UniProt P11166)
inactive: [1] -0.025 | [2] 0.011 | [3] 0.068 | [4] 0.05 | [5] 0.024 | [6] 0 | [7] 0.008 | [8] -0.039 | [9] 0.014 | [10] -0.037

SLC25A37 (UniProt Q9NYZ2)
inactive: [1] -0.02 | [2] -0.007 | [3] 0.034 | [4] 0 | [5] 0.049 | [6] 0.028 | [7] -0.055 | [8] -0.008 | [9] -0.032 | [10] -0.002

SLC44A2 (UniProt Q8IWA5)
inactive: [1] -0.003 | [2] 0.011 | [3] 0.027 | [4] 0.069 | [5] 0.029 | [6] 0.05 | [7] -0.051 | [8] 0.009 | [9] -0.057 | [10] -0.105

SLC22A5 isoform 3 (UniProt O76082)
inactive: [1] -0.042 | [2] -0.104 | [3] 0.26 | [4] -0.201 | [5] 0.034 | [6] 0.118 | [8] -0.286 | [9] -0.009 | [10] -0.073

SLC35B3 (UniProt Q9H1N7)
inactive: [1] 0.07 | [2] -0.007 | [3] -0.062 | [4] -0.013 | [5] 0.052 | [6] 0.061 | [8] 0.17 | [9] -0.207 | [10] 0.099

SLC35B4 (UniProt Q969S0)
inactive: [1] -0.061 | [2] 0.037 | [3] -0.104 | [4] -0.101 | [6] 0.058 | [7] -0.173 | [8] 0.064 | [9] 0.17 | [10] 0.137

SLC25A42 (UniProt Q86VD7)
inactive: [1] 0.02 | [2] -0.009 | [3] -0.076 | [4] -0.051 | [5] -0.039 | [6] 0.034 | [7] 0 | [8] -0.009 | [9] -0.019 | [10] 0.079

SLC25A14 isoform 3 (UniProt O95258)
inactive: [1] 0.016 | [2] 0.008 | [3] -0.088 | [4] -0.084 | [5] -0.012 | [6] 0.135 | [7] 0.009 | [8] -0.026 | [9] -0.027 | [10] 0.112

SLC48A1 (UniProt Q6P1K1)
inactive: [1] -0.002 | [2] 0.039 | [4] -0.079 | [5] -0.147 | [6] 0.082 | [7] -0.1 | [9] -0.091 | [10] 0.133

SLC66A1 (UniProt Q6ZP29)
inactive: [1] -0.046 | [2] -0.015 | [3] -0.051 | [4] -0.087 | [6] 0.067 | [8] -0.175 | [9] 0.073 | [10] 0.015

SLC3A2 (UniProt F5GZS6)
inactive: [1] -0.008 | [2] 0.045 | [4] -0.08 | [5] -0.067 | [6] 0.061 | [7] -0.004 | [9] -0.024 | [10] 0.185

SLC41A1 (UniProt Q8IVJ1)
inactive: [1] -0.059 | [3] 0.141 | [4] -0.09 | [6] 0.136 | [7] -0.016 | [8] 0.01 | [10] 0.113

— the supplement of paper PMC10849652
